Experimental data published in publication PMC12274486, “A glyoxal-specific aldehyde signaling axis in Pseudomonas aeruginosa that influences quorum sensing and infection” (Nature Communications, 2025).

Molecular target: T1, ArqI-BirA*-FLAG fusion protein (Pseudomonas aeruginosa MPAO1)
T1 sequence: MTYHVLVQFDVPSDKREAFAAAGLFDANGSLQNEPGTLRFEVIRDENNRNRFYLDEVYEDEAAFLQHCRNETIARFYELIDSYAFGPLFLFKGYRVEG
Assay: proximity labelling; BioID in P. aeruginosa MPAO1: ArqI-BirA*-FLAG or BirA*-FLAG co-expressed with PqsA-HA, 50 µM biotin; anti-HA immunoprecipitation, then streptavidin-HRP blot

B1: HA-tagged PqsA (enzyme, UniProt Q9I4X3 1-517)
chain: MSTLANLTEVLFRLDFDPDTAVYHYRGQTLSRLQCRTYILSQASQLARLLKPGDRVVLALNDSPSLACLFLACIAVGAIPAVINPKSREQALADIAADCQASLVVREADAPSLSGPLAPLTLRAAAGRPLLDDFSLDALVGPADLDWSAFHRQDPAAACFLQYTSGSTGAPKGVMHSLRNTLGFCRAFATELLALQAGDRLYSIPKMFFGYGMGNSLFFPWFSGASALLDDTWPSPERVLENLVAFRPRVLFGVPAIYASLRPQARELLSSVRLAFSAGSPLPRGEFEFWAAHGLEICDGIGATEVGHVFLANRPGQARADSTGLPLPGYECRLVDREGHTIEEAGRQGVLLVRGPGLSPGYWRASEEQQARFAGGWYRTGDLFERDESGAYRHCGREDDLFKVNGRWVVPTQVEQAICRHLPEVSEAVLVPTCRLHDGLRPTLFVTLATPLDDNQILLAQRIDQHLAEQIPSHMLPSQLHVLPALPRNDNGKLARAELRHLADTLYHDNLPEERAC
binding: binds

These are yes or no findings as the source states them, for the method shown. Binding seen in cells or lysates may run through a third protein. These calls come from enrichment with a bait or labelling near it, and not all partners need be listed. Sequences can lack the tags named with a protein.
